Values quoted from earlier work in patent US11103158B2, “Pure non-invasive method for identification of organ diseases or impaired organ function by investigation of marker substances in exhaled air stimulated by inhaled marker substances” (FREIE UNIVERSITÄT BERLIN, priority 2015, dated 2021).
For at least one compound, name, drawing or mass did not settle the structure.

Conditions: cited from earlier work

C=C(C)[C@H]1CC=C(C)CC1 [limonene]
vapor pressure: low vapor pressure
